Compound in the assay: CN[C@@H]1C[C@H]2O[C@@](C)([C@@H]1OC)n1c3ccccc3c3c4c(c5c6ccccc6n2c5c31)C(=O)NC4 [staurosporine]
Nature of the assay: log2 fold change of tryptic peptide abundance, ligand vs vehicle (limited proteolysis) (log2 ratio); higher = more trypsin-susceptible (destabilized). The conditions noted are these: ligand concentration: 20 uM; sample: mouse liver crude lysate; replicate design: treated separately.

Amino acid sequences for entries named in this document (tags omitted). A change or cut given only in a name is not applied to a line headed by its entry.
UniProt Q9DAI4: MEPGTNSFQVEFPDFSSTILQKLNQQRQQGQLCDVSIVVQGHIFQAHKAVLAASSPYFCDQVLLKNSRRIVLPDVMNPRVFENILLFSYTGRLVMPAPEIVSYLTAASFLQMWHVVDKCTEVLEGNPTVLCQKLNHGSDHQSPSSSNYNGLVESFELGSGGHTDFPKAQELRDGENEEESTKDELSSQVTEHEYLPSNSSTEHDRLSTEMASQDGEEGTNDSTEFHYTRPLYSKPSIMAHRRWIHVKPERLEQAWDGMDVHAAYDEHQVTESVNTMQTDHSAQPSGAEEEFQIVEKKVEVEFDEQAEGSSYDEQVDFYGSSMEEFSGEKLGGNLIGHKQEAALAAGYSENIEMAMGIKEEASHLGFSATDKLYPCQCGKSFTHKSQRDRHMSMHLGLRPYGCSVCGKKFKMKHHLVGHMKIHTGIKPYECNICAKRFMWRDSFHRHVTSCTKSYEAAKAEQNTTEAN
UniProt Q9D2M8: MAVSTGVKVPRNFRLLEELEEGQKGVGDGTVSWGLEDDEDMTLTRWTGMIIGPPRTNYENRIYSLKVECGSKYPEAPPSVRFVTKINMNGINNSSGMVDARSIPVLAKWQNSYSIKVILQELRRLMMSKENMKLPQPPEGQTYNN
UniProt Q9D1B9, whole entry: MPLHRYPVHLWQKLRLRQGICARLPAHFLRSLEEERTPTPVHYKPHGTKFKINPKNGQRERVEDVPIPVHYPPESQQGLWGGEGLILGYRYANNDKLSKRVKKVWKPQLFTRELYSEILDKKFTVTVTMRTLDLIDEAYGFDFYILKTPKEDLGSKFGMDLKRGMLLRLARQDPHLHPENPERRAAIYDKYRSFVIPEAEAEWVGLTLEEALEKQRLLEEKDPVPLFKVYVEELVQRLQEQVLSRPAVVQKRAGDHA
UniProt Q9D853: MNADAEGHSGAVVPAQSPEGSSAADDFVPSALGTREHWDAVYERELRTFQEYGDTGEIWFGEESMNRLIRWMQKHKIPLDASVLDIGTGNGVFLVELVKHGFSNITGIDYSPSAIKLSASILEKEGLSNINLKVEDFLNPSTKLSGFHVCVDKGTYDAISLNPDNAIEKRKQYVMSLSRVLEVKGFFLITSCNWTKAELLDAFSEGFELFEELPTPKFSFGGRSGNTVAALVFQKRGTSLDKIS
UniProt Q9D4F8, whole entry: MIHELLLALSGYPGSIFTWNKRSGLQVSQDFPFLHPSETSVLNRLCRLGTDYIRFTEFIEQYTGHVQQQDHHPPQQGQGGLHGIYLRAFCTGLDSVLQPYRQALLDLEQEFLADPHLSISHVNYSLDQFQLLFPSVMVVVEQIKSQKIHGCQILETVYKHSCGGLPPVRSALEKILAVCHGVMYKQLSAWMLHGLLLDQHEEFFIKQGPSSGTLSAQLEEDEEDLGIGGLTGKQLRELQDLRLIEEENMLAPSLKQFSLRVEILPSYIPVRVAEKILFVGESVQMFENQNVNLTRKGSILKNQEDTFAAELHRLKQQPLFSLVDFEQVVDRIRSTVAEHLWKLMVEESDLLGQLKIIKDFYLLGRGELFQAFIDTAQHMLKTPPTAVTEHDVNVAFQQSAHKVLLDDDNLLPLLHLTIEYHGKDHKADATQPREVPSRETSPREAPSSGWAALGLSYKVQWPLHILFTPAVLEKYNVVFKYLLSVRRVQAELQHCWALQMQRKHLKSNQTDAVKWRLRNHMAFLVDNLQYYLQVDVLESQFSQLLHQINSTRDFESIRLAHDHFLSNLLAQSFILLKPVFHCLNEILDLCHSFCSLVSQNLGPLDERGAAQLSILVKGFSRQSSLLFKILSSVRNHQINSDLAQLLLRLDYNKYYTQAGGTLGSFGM
UniProt Q9D1Q4: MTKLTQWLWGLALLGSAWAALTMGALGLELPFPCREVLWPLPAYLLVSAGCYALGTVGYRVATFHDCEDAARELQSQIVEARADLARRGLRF
UniProt Q9D1N9, whole entry: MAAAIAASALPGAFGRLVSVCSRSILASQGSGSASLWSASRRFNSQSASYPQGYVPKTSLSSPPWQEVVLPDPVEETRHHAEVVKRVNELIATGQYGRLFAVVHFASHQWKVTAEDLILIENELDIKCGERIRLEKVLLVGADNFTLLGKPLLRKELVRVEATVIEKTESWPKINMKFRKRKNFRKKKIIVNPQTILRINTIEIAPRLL
UniProt Q9D8F1: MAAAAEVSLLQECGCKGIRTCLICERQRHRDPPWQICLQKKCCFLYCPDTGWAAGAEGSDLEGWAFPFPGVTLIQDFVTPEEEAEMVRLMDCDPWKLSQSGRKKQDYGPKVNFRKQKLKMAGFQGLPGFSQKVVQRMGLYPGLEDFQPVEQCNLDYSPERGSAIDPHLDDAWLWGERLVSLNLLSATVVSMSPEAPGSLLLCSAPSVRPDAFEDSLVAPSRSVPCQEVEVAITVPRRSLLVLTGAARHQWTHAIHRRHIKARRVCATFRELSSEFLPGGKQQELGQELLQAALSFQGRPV
UniProt Q9D1P4: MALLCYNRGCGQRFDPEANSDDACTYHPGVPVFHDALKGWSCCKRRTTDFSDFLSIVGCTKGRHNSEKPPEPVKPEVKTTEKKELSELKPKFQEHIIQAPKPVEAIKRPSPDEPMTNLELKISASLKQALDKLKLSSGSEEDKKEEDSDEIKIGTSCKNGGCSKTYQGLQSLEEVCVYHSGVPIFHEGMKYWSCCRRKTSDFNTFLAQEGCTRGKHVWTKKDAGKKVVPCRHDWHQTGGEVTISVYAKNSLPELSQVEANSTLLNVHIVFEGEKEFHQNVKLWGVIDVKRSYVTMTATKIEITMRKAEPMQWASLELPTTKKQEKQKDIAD
UniProt Q9DA97: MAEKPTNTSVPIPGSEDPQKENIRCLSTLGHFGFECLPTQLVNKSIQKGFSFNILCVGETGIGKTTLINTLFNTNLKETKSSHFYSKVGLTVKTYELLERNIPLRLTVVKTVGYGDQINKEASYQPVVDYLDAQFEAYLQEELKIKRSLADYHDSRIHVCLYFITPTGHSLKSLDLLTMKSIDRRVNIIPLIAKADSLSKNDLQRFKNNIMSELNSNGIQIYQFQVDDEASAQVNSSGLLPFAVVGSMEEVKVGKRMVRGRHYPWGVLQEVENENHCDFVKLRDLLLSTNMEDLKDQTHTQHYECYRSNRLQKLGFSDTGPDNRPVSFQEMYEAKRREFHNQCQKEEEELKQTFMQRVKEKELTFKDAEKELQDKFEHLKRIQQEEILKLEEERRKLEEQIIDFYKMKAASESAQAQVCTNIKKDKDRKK
UniProt Q9D8Y7: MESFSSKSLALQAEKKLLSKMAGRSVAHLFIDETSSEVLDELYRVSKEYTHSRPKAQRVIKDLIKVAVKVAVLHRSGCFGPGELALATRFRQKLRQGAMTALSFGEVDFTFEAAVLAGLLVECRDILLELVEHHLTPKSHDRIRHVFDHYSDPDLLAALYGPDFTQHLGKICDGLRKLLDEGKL
UniProt Q9D706, whole entry: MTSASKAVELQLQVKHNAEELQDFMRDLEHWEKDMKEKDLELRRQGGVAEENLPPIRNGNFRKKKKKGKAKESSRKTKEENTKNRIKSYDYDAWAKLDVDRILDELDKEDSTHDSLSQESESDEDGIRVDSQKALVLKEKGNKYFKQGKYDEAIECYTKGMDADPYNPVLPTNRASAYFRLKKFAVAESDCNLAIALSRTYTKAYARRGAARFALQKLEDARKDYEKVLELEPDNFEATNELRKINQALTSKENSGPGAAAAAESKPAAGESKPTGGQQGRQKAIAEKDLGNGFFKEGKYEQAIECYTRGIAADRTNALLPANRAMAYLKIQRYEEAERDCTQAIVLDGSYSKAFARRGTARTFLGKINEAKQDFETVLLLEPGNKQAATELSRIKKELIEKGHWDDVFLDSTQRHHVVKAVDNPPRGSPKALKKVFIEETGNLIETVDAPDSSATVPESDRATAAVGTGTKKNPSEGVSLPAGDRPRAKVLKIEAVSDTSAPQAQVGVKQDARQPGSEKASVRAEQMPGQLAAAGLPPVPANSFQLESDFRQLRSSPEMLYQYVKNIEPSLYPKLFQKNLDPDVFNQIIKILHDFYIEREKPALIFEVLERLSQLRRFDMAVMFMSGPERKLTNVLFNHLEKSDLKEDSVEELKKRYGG
UniProt Q9D479: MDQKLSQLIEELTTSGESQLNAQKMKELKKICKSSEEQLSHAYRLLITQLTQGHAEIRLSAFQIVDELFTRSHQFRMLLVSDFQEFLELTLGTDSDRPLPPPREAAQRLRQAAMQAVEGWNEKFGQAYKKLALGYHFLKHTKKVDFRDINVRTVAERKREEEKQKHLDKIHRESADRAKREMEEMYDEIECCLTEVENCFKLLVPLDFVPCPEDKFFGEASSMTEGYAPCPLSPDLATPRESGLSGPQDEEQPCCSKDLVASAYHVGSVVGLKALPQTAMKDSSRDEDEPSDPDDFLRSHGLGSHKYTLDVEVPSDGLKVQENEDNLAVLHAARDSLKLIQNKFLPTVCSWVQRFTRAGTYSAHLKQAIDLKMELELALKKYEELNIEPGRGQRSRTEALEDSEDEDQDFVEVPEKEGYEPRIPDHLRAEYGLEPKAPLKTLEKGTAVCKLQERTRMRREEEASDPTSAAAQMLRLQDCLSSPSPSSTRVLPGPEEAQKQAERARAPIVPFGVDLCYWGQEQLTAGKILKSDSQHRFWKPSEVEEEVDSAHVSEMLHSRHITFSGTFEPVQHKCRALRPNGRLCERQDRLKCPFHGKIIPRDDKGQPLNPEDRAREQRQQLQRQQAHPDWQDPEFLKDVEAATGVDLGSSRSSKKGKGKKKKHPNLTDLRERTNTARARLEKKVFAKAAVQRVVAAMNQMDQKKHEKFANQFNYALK
UniProt Q9D2R6: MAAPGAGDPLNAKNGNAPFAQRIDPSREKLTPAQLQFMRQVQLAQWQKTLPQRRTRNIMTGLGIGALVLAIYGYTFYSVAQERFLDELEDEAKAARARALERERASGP
UniProt Q9D3D9: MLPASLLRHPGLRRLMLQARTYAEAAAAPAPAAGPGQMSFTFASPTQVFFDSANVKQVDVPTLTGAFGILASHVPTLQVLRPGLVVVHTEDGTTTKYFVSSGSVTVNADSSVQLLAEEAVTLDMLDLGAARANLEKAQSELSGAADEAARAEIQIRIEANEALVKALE
UniProt Q9D8L0: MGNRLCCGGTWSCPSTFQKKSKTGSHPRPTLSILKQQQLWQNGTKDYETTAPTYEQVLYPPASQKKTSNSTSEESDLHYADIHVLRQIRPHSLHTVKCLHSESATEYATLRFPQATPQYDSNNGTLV
UniProt Q9D198: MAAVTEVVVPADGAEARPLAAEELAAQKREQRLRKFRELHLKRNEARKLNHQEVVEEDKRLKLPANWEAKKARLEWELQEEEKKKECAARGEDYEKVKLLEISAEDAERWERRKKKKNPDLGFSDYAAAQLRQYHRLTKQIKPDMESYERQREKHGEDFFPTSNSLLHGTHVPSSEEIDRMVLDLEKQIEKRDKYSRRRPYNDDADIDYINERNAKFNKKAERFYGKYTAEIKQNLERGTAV
UniProt Q9D6Y9: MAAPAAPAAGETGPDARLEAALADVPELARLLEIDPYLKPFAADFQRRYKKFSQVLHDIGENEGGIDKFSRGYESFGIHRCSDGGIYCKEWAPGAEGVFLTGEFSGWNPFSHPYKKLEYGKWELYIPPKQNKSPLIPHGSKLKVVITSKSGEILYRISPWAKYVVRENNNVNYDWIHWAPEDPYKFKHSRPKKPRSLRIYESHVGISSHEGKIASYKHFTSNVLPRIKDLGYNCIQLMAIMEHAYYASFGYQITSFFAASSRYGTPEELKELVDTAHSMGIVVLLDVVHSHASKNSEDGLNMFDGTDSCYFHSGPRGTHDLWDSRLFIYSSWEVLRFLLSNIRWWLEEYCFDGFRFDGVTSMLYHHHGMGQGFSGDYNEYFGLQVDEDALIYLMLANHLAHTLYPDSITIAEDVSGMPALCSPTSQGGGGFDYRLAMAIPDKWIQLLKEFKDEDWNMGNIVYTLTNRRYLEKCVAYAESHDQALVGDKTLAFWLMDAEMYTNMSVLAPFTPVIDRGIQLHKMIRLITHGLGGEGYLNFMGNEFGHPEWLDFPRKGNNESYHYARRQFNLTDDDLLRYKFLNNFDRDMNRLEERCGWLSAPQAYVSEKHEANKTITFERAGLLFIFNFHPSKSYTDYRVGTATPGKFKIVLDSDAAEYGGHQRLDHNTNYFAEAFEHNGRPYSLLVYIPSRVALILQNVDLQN
UniProt Q9D8S3: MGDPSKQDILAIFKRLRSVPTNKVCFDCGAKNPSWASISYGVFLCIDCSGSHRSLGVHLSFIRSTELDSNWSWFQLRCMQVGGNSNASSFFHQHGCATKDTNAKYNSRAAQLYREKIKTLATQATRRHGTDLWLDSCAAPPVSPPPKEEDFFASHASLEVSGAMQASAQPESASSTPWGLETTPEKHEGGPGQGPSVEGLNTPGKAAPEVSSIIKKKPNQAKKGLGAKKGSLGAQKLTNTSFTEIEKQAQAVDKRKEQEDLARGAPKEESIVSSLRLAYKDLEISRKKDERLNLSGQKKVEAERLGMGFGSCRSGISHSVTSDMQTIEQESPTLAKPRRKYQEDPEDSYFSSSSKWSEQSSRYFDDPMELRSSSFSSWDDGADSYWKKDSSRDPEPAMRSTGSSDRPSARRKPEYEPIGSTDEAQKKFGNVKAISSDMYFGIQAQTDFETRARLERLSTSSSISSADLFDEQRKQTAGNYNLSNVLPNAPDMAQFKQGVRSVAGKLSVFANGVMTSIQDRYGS

The other results are listed elsewhere or left out. Small differences around the control level are noise.

On to “UniProt Q9DAI4 (peptide sequence: WIHVKPER, peptide start residue: 243)”, for which the log2 fold change is 0.205. Then “UniProt Q9DA69 (peptide sequence: RSSATSGAK, peptide start residue: 13)”, with -0.297; and “UniProt Q9D952 (peptide sequence: LEELKDELLALEQK, peptide start residue: 1054)”, with 0.596. The result for “UniProt Q9D2M8 (peptide sequence: AVSTGVKVPR, peptide start residue: 2)” reads 0.108; that for “UniProt Q9D1P0 (peptide sequence: VWTPPDDFRM, peptide start residue: 169)”, 0.286. Regarding “UniProt Q9D1B9 (peptide sequence: YPVHLWQK, peptide start residue: 6)”, the log2 fold change was determined as 0.57.

On to “UniProt Q9D853 (peptide sequence: SGNTVAALVFQKRGTSLDK, peptide start residue: 224)”, for which the log2 fold change came out at 0.186. The result for “UniProt Q9D8N0 (peptide sequence: QVLEPSFR, peptide start residue: 174)” reads 0.157.

In the case of “UniProt Q9D4H4 (peptide sequence: AGGEPSPAQPVCK, peptide start residue: 302)”, the log2 fold change was -1.2.

In the case of “UniProt Q9D4F8 (peptide sequence: VEILPSYIPVR, peptide start residue: 261)”, the log2 fold change is -0.26.

Regarding “UniProt Q9D4C5 (peptide sequence: DNPSPEPQLDDIKR, peptide start residue: 162)”, the log2 fold change is -0.234. Then “UniProt Q9D1Q4 (peptide sequence: VATFHDCEDAAR, peptide start residue: 61)”, with 0.0939. With “UniProt Q9D665 (peptide sequence: FVCGDIR, peptide start residue: 53)”, the log2 fold change was determined as 0.358. Then “UniProt Q9D8P4 (peptide sequence: FQGQNGNYTR, peptide start residue: 97)”, with 0.681; and “UniProt Q9D7J4 (peptide sequence: ILYESTHLDPERK, peptide start residue: 98)”, with -0.108. Then “UniProt Q9D361 (peptide sequence: MYSSVPVEVPLNHKR, peptide start residue: 137)”, with 0.22; and “UniProt Q9D7V9 (peptide sequence: VETNYDHWKPAPK, peptide start residue: 289)”, with -0.273. Then “UniProt Q9D142 (peptide sequence: IDGVAVGLCAHSPYLRPFTLHYR, peptide start residue: 4)”, with -0.561; and “UniProt Q9D8C6 (peptide sequence: LKISDVAR, peptide start residue: 102)”, with -0.0364. With “UniProt Q9D281 (peptide sequence: SLLSSASATVGHGLTAVKEK, peptide start residue: 136)”, the log2 fold change is -0.204.

For “UniProt Q9D1N9 (peptide sequence: VNELIATGQYGR, peptide start residue: 87)”, the log2 fold change came to 0.231. Consider “UniProt Q9D8F1 (peptide sequence: SLLVLTGAAR, peptide start residue: 238)”, for which the log2 fold change was 0.122. Then “UniProt Q9D8S9 (peptide sequence: LVHEALSEELAGPVHALAIQAK, peptide start residue: 88)”, with 0.142. For “UniProt Q9D1P4 (peptide sequence: SYVTMTATK, peptide start residue: 291)”, the log2 fold change came to 0.121. With “UniProt Q9DA97 (peptide sequence: DAEKELQDK, peptide start residue: 367)”, the log2 fold change turned out to be 0.213. Then “UniProt Q9D3U0 (peptide sequence: THYLDEHHFR, peptide start residue: 464)”, with 0.207. The result for “UniProt Q9D8U2 (peptide sequence: LALSETSDIGHPDR, peptide start residue: 247)” reads 0.0564; that for “UniProt Q9D8Y7 (peptide sequence: DILLELVEHHLTPK, peptide start residue: 125)”, 0.142; that for “UniProt Q9D706 (peptide sequence: SYDYDAWAK, peptide start residue: 88)”, 0.172. The result for “UniProt Q9D720 (peptide sequence: LQNHCYQVHDR, peptide start residue: 36)” reads 0.487; that for “UniProt Q9DA19 (peptide sequence: EQESYDNR, peptide start residue: 49)”, -0.159.

On to “UniProt Q9D479 (peptide sequence: VQENEDNLAVLHAAR, peptide start residue: 320)”, for which the log2 fold change is -0.512. Then “UniProt Q9D9M5 (peptide sequence: LPIELQDSYQK, peptide start residue: 31)”, with 0.141; and “UniProt Q9D4F2 (peptide sequence: ASDSPVHR, peptide start residue: 57)”, with 0.241.

On to “UniProt Q9DAM7 (peptide sequence: DHPQQQPGMLSR, peptide start residue: 25)”, for which the log2 fold change turned out to be 0.538. The result for “UniProt Q9D5D8 (peptide sequence: TTPSGLQIMPLKK, peptide start residue: 136)” reads 0.352.

Consider “UniProt Q9DAJ4 (peptide sequence: APELPQKR, peptide start residue: 10)”, for which the log2 fold change was 0.358. Then “UniProt Q9D2R6 (peptide sequence: EKLTPAQLQFMR, peptide start residue: 28)”, with -0.154; and “UniProt Q9D3D9 (peptide sequence: IEANEALVKALE, peptide start residue: 157)”, with 0.559; and “UniProt Q9D8L0 (peptide sequence: KTSNSTSEESDLHYADIHVLR, peptide start residue: 66)”, with -0.194. Then “UniProt Q9D198 (peptide sequence: LEWELQEEEKKK, peptide start residue: 74)”, with -0.2; and “UniProt Q9D1M4 (peptide sequence: SLGLKPGNK, peptide start residue: 13)”, with -0.195.

With “UniProt Q9D3R9 (peptide sequence: GARGPPTPGR, peptide start residue: 64)”, the log2 fold change is -0.286. “UniProt Q9D7W5 (peptide sequence: VPVFSHEVVPDHLR, peptide start residue: 97)”: the log2 fold change is -0.349. Then “UniProt Q9D1M0 (peptide sequence: FASGGCDNLIK, peptide start residue: 182)”, with -0.477. Then “UniProt Q9D6Y9 (peptide sequence: CGWLSAPQAYVSEKHEANK, peptide start residue: 594)”, with -0.687; and “UniProt Q9D8S3 (peptide sequence: STGSSDRPSAR, peptide start residue: 400)”, with -0.678.

Values taken from the supplement of paper PMC12819154, “High-throughput peptide-centric local stability assay extends protein–ligand identification to membrane proteins, tissues and bacteria” (Nature Structural & Molecular Biology, 2025).
